# Results taken from PubChem BioAssay AID2685 (National Center for Advancing Translational Sciences (NCATS), 2010).
# Some of the results follow. The main result of the screen is listed elsewhere. These columns were measured beside it and carry no call. Compounds called inactive in the main read-out are mostly missing here. Words in brackets tell the shape of the fitted curve; partial curves, single points and poor fits give uncertain potencies.
# Test: qHTS Assay for Lipid Storage Modulators in Drosophila S3 Cells;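 as to cell number change: cells counted by Cell Tracker Red CMTPX staining in the red channel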
# Settings: BODIPY lipid droplet fluorescence, 18-24 h; for cell number change: measured here: cell count max response, cells fed with added oleic acid
# In short: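 Drosophila S3 cells got compounds at several concentrations plus oleic acid (400 uM solution). Laser-scanning cytometry with 488 nm excitation read lipid droplets at 500-530 nm and cells at 575-640 nm. Percent activity was relative to 20 uM Triacsin C.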
# [1] = measured here: lipid fluorescence (Fed channel) AC50, cells fed with added oleic acid
# [2] = measured here: cell number channel AC50, cells fed with added oleic acid
SMILES,cell number change,AC50 [1],AC50 [2]
Cc1ccccc1N=C/C=C1/C=C(c2ccccc2)OC(C)(C)O1,-4.03%,"25.9 µM [falling, single point]",
Cc1oc(C(C)(C)C)cc1C(=O)N1CCCC1C(=O)O (configuration not stated),12.2%,"0.82 µM [rising, full curve, poor fit]",
Cc1cc(C)cc(NC(=O)c2ccc(S(=O)(=O)N(C)CC3CCCO3)cc2)c1 (configuration not stated),6.24%,"16.4 µM [falling, single point]",
CSc1nc2nc3c(cc2c(=O)[nH]1)C(O)Oc1ccc(C)cc1-3 (configuration not stated),40.6%,,"29.1 µM [rising, single point]"
COc1ccccc1Nc1nc(N)nc(CSc2nncn2C)n1,,"4.11 µM [falling, single point]","3.26 µM [falling, single point]"
Cc1c(Cl)c([N+](=O)[O-])nn1CC(=O)NCC1CCCO1 (configuration not stated),18.3%,,
Cc1cccc(CN2C(=O)N/C(=C/c3ccc(C)s3)C2=O)c1,22.9%,"1.46 µM [rising, partial curve]",
CCN(CC)S(=O)(=O)c1ccc(-c2nnc(SCC(=O)Nc3cc(OC)cc(OC)c3)o2)cc1,46.7%,,"20.6 µM [rising, single point]"
Cc1ccc(N(Cc2cc(=O)[nH]c3ccccc23)C(=O)c2ccco2)cc1,-0.144%,,
CCOC(=O)Cc1ncccc1C(=O)Nc1ccc(OC(F)(F)F)cc1,18%,,
Cc1nn2c(=O)cc(COC(=O)c3c(F)cccc3Cl)nc2s1,-34.4%,"29.1 µM [falling, single point]","32.6 µM [falling, single point]"
CSc1nc2c(c(=O)n1Cc1ccccc1)SC(C)C2 (configuration not stated),141%,,
COc1ccc(S(=O)(=O)N(CCc2ccccc2)CC(=O)NCCCO)cc1,-0.521%,,
CCOC(=O)C1=CN(C)C=C(C(=O)OCC)C1c1ccsc1,-86.7%,"14.6 µM [falling, partial curve]","9.2 µM [falling, partial curve]"
CC(=O)c1ccc(OCc2cc(C(=O)N(C)CCOc3ccc(C)cc3)no2)cc1,-12%,,
CCOc1ccc(NC(=O)Cn2cc(C(=O)c3ccco3)c3ccccc32)cc1,-9.37%,"2.06 µM [falling, partial curve]","1.03 µM [falling, partial curve]"
COc1ccc(NC(=O)CSc2nc(NS(=O)(=O)c3ccccc3)cc(=O)[nH]2)cc1,-10.1%,"4.11 µM [falling, partial curve, poor fit]",
Cc1ccc2c(c1)=C(c1ccccc1)N(O)CC(=O)N=2,22.6%,,
Cc1ccccc1OCc1nnc(SCC(=O)Nc2ccc3c(c2)OCO3)n1C,-4.24%,"18.4 µM [rising, partial curve, poor fit]",
C#CCn1c(=NC(=O)c2cc(Cl)sc2Cl)sc2cc(S(N)(=O)=O)ccc21,23.6%,,"2.91 µM [rising, single point]"

# 5 entries picked at random from the list so far, as already listed:
SMILES,cell number change,AC50 [1],AC50 [2]
CCN(CC)S(=O)(=O)c1ccc(-c2nnc(SCC(=O)Nc3cc(OC)cc(OC)c3)o2)cc1,46.7%,,"20.6 µM [rising, single point]"
CSc1nc2nc3c(cc2c(=O)[nH]1)C(O)Oc1ccc(C)cc1-3 (configuration not stated),40.6%,,"29.1 µM [rising, single point]"
C#CCn1c(=NC(=O)c2cc(Cl)sc2Cl)sc2cc(S(N)(=O)=O)ccc21,23.6%,,"2.91 µM [rising, single point]"
Cc1ccc2c(c1)=C(c1ccccc1)N(O)CC(=O)N=2,22.6%,,
Cc1ccccc1OCc1nnc(SCC(=O)Nc2ccc3c(c2)OCO3)n1C,-4.24%,"18.4 µM [rising, partial curve, poor fit]",

# Additional records:

SMILES,cell number change,AC50 [1],AC50 [2]
CCOC(=O)Nc1ccc(S(=O)(=O)Nn2cnnc2)cc1,5.18%,"29.1 µM [falling, single point]",
OC(COc1ccc(Br)cc1)Cn1ccnc1 (configuration not stated),-14.9%,,"0.82 µM [falling, single point]"
c1ccc2c(c1)-c1cccc3c1c-2cc1ccccc13,-28.5%,"0.103 µM [rising, single point]",
COc1cc(/C=C(\C#N)c2nc3ccccc3o2)ccc1O,-37.6%,"29.1 µM [falling, single point]","18.4 µM [falling, single point]"
CC(C)CNC(=O)Cn1c(=O)c2c(ncn2CC(C)C)n(Cc2ccccc2)c1=O,-11.5%,"0.13 µM [falling, full curve, poor fit]",
Fc1ccc(CNc2nc(-c3ccccc3)nc3ccccc23)cc1,-4.03%,"0.58 µM [rising, full curve]","0.82 µM [rising, full curve, poor fit]"
COc1ccc(-c2[nH]nc3c2C(c2ccncc2)C(C#N)=C(N)O3)cc1 (configuration not stated),,"2.31 µM [rising, partial curve]","2.31 µM [rising, partial curve]"
O=C(CNc1ccccc1)N/N=C/c1ccc([N+](=O)[O-])o1,-15.6%,"23.1 µM [falling, partial curve]",
O=C(COc1ccc([N+](=O)[O-])cc1)Nc1ccc2[nH]c(=O)[nH]c2c1,-7.84%,"18.4 µM [falling, partial curve]",
Cc1ccc(NC(=O)CS(=O)CC(=O)N(c2ccccc2)C(C)C(=O)NC2CCCC2)cc1 (configuration not stated),36.5%,"18.4 µM [rising, partial curve]","3.26 µM [rising, full curve, poor fit]"
CC(=O)Nc1cccc(NC(=O)CCCC2CCCCC2)c1,20.5%,"29.1 µM [rising, single point]",
Cc1ccc(S(=O)(=O)N2CCCCC2CCNC(=O)C(=O)NCc2cccnc2)cc1 (configuration not stated),-39%,"29.1 µM [falling, partial curve, poor fit]","29.1 µM [falling, single point]"
COc1ccc(NS(=O)(=O)c2cc(NC(=O)/C=C/c3cc(OC)ccc3OC)ccc2N2CCCCC2)cc1,,,"0.411 µM [rising, partial curve, poor fit]"
CCn1ncc(Cl)c1C(=O)Nc1ccc2c(c1)CCC2,-53%,,
CCC(C)NC(=O)CCc1c(C)nc2nc(-c3cc(OC)cc(OC)c3)nn2c1C (configuration not stated),5.57%,"29.1 µM [rising, single point]",
O=C(CCNC(=O)c1ccc([N+](=O)[O-])cc1)NC1CCCCC1,-30%,,"0.651 µM [falling, full curve, poor fit]"
O=C(NC1CC1)C(Cc1ccccc1)NS(=O)(=O)c1ccccc1F (configuration not stated),,,"6.51 µM [falling, single point]"
CCOC(OCC)c1cn(Cc2ccc(C(=O)c3ccccc3)cc2)nn1,12.6%,"0.259 µM [rising, full curve, poor fit]",
O=C(COC(=O)C1CC1)NC(=O)NCc1ccccc1,-3.29%,"0.103 µM [falling, partial curve, poor fit]",
CNS(=O)(=O)c1ccc(NS(=O)(=O)c2ccccc2F)cc1,35.9%,,

SMILES,cell number change,AC50 [1],AC50 [2]
O=C(N/N=C\c1ccccc1F)c1ccc(-c2ccccc2)cc1,35.3%,"0.00461 µM [falling, full curve, poor fit]","29.1 µM [rising, single point]"
O=C(O)CNC1=NCCCCC1,-18.4%,"0.206 µM [rising, full curve]",
Cc1cccc(NC2SC(=O)N(c3ccccc3)C2=O)c1 (configuration not stated),14.3%,"6.51 µM [rising, partial curve, poor fit]",
O=C(N1CCCC1)C12CCC3CC(CC(C3)C1)C2,-8.69%,"0.731 µM [falling, full curve]","0.461 µM [falling, full curve]"
CCOc1ccc(NC(=O)CSc2nc3ccsc3c(=O)n2CCC(=O)O)cc1,1.79%,,
O=C(CSc1nc(C2CC2)nc2ccccc12)N1CCc2ccccc2C1,-18.9%,"4.11 µM [falling, single point]",
COCCNC(=O)CS(=O)Cc1nc(-c2ccccc2C)oc1C (configuration not stated),7.86%,,
CCc1c(C)nc2cc(-c3ccc(OC)c(OC)c3)nn2c1NCC1CC1,-168%,"11.6 µM [falling, single point]","11.6 µM [falling, single point]"
COc1ccccc1NC(=O)CSc1nnc(-c2ccoc2C)o1,12.8%,"0.92 µM [rising, full curve, poor fit]",
CCOc1ccc(N(CC(=O)NCCSCc2ccccc2)S(=O)(=O)c2ccccc2)cc1,31.1%,"20.6 µM [falling, single point]",
CCC(C)(C)n1nnnc1C(c1ccccc1)N1CCc2ccccc2C1 (configuration not stated),,"2.31 µM [rising, partial curve, poor fit]",
COc1ccc2[nH]c(=O)c(CN(Cc3cccs3)Cc3nnnn3C(C)(C)C)cc2c1,,"6.51 µM [rising, single point]","3.26 µM [rising, single point]"
CCCn1c(SCC(=O)N2CCCc3ccccc32)nnc1-c1ccco1,5.62%,"29.1 µM [rising, single point]",
CCOc1cc(-c2nc(-c3ccc(C)nc3OCC)no2)cc(OCC)c1OCC,,,"1.64 µM [rising, partial curve]"
CC(C)(C)NC(=O)CCN(/N=C/c1ccccc1F)C1=NS(=O)(=O)c2ccccc21,-14%,"18.4 µM [falling, single point]",
CCCCNC(=O)C1=C(N)C(C(=O)Nc2ccc(C)c(S(=O)(=O)N3CCCCC3)c2)SC1=Nc1ccc(C)cc1C (configuration not stated),-22%,"1.84 µM [rising, partial curve]","0.82 µM [rising, full curve]"
CCCCCOc1ccc(C(=O)NCCC(=O)NCCCC(=O)OCC)cc1,-52.5%,,"23.1 µM [falling, partial curve]"
Cc1nn(CCCC(=O)N2CCc3ccccc3C2)c(=O)c2cc3sccc3n12,-16.9%,,
CN1CCN(CC(=O)Nc2ccc(OCc3ccccc3)cc2)CC1,-35.3%,"0.82 µM [falling, full curve, poor fit]","0.231 µM [falling, full curve, poor fit]"
Cc1cc(C)c2c(CN3CCOCC3)cc(=O)oc2c1C,37.5%,"5.8 µM [rising, partial curve]","8.2 µM [rising, partial curve, poor fit]"
